Values of other authors in US20020110523A1, “Methods for screening or monitoring the risk of cardiovascular disease relating to sex steroid compound or composition intake and methods for screening sex steroid compound” (priority 1996, published 2002).
Read-outs that look alike come from different tables or passages of the source. For at least one compound, name, drawing or mass did not settle the structure.

Legend:
[1] = system: ceruloplasmin; details: FIG. 1 of Ruokonen and Kaar, cited from earlier work
[2] = system: SHBG, cortisol binding protein (CBP), ceruloplasmin and HDL-cholesterol; details: cited from earlier work

Question: What does the source list for `C#C[C@]1(O)CC[C@H]2[C@@H]3CCC4=CC(=O)CC[C@@H]4[C@H]3CC[C@@]21CC` [levonorgestrel]?
Answer: effect on ceruloplasmin concentration [1]: causes the ceruloplasmin concentration to decrease; effect on ceruloplasmin concentration ([1]; listed as Levonorgestrel): decreases ceruloplasmin specifically in the first cycle; estrogenic effect ([2]; in man): no estrogenic effect; androgenic activity ([2]; on the basis of a change in SHBG and HDL cholesterol levels): androgenic activity
